Here are results for one molecule from article PMC4552645.

The chains behind the UniProt entries cited, without tags or fusion partners.
UniProt P0A3F4: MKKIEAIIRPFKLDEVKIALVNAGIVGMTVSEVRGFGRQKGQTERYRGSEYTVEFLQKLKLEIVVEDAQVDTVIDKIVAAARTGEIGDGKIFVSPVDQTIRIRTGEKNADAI

Test [1] concerns the target PII-Venus (Synechococcus elongatus PII protein with its C-terminus fused to the fluorescent Venus protein) (Synechococcus elongatus) (UniProt P0A3F4). The experiment in a line: FRET or BRET; competition: plate reader (Tecan Infinite 200, 96-well), PII-V and NAGK-C 0.1 uM each with 0.1, 0.5 or 1.0 uM PipX, 1 mM ATP with increasing ADP; 50 mM imidazole pH 7.5, 50 mM KCl, 20 mM MgCl2, 0.5 mM DTT; both purified. On the technique in general: Bioluminescence resonance energy transfer reports proximity on the nanometre scale.

For test [2] the target is unchanged. The experiment in a line: FRET or BRET; competition in 1 ml cuvettes (FluoroMax-2): PII-V 0.1 uM preincubated 1 h at 37°C with or without ATP, then NAGK-C 0.1 uM and PipX 1 uM added with ATP (10, 100, 1000 uM) or 1:1 ATP+ADP (5, 50, 500 uM each), FRET read after 15 min; 50 mM imidazole pH 7.5, 50 mM KCl, 20 mM MgCl2, 0.5 mM DTT; both purified.

Results are given in words; binding and its absence hold for the method and conditions named. Some results given as binding are weak or reduced against the parent protein; the word gives no strength.

B1: PipX (protein, UniProt Q7X386 1-89)
chain: MASENYLNHPTFGLLYQICSFGDSKELFATLYAQRLFFLVAFDARGTRFEPIGRNEARMLVDNRLRQLRRDASLQEYNQLQQVFKQTFL
In the case of B1, the binding entry in test [1] and in test [2] was “binds” each time.
